This experiment concerns the target GST alone. The experiment can be described thus: pull-down; GST or GST-HDA19 incubated with [35S]Met-labelled translation mixture in bead-binding buffer (50 mM K-phosphate pH 7.6, 450 mM KCl, 10 mM MgCl2, 10% glycerol, 1% Triton X-100, 1% BSA) 1 h at room temperature, then glutathione-Sepharose beads 1 h at 4 °C; SDS-PAGE and fluorography; only the target purified.

These are yes or no findings as the source states them, for the method shown. Binding seen in cells or lysates may run through a third protein.

This passage reports binding results from PMC4507008.

B1: [35S]methionine-labelled full-length SCL15 protein (protein, UniProt O23210 1-486)
chain: MKIPASSPQDTTNNNNNTNSTDSNHLSMDEHVMRSMDWDSIMKELELDDDSAPNSLKTGFTTTTTDSTILPLYAVDSNLPGFPDQIQPSDFESSSDVYPGQNQTTGYGFNSLDSVDNGGFDFIEDLIRVVDCVESDELQLAQVVLSRLNQRLRSPAGRPLQRAAFYFKEALGSFLTGSNRNPIRLSSWSEIVQRIRAIKEYSGISPIPLFSHFTANQAILDSLSSQSSSPFVHVVDFEIGFGGQYASLMREITEKSVSGGFLRVTAVVAEECAVETRLVKENLTQFAAEMKIRFQIEFVLMKTFEMLSFKAIRFVEGERTVVLISPAIFRRLSGITDFVNNLRRVSPKVVVFVDSEGWTEIAGSGSFRREFVSALEFYTMVLESLDAAAPPGDLVKKIVEAFVLRPKISAAVETAADRRHTGEMTWREAFCAAGMRPIQLSQFADFQAECLLEKAQVRGFHVAKRQGELVLCWHGRALVATSAWRF
modifications: [35S]methionine-labelled
Take B1: the binding result is “no binding”.
